{"source": "PubChem BioAssay AID485353", "about": "(National Center for Advancing Translational Sciences (NCATS), 2010)", "note": "Among all 330,000 compounds or so, about 610 (0.18%) were called active. Inconclusive results, whose numbers are uncertain, are shown with a selection of clear calls. Calls come from the whole dose curve. Potencies beside an inconclusive call are fits to weak or partial responses and may not hold up. Potency is the fitted concentration of half-maximal effect."}
{"assay": "qHTS of Yeast-based Assay for SARS-CoV PLP; note: nearly all actives have a fitted effect of over 55% in size; for activity, positive = growth rescue: 0% is about no effect", "conditions": "S. cerevisiae expressing SARS-CoV PLpro; Potency: growth rescue; activity, positive = growth rescue: at 32.9 µM (top of the series)"}
{"smiles": "COc1ccc(Br)cc1-c1noc(-c2ccccc2)n1", "Potency": "inconclusive: 20 µM [activator, partial curve]"}
{"smiles": "NS(=O)(=O)c1ccc(CCNC(=O)Cn2c(=O)c3cccn3c3cccnc32)cc1", "Potency": "inconclusive: 20 µM [activator, single point]"}
{"smiles": "CCN1CCN(C(=O)NS(=O)(=O)c2ccc(C)cc2)CC1", "activity, positive = growth rescue": "inactive: 0.862%"}
{"smiles": "COCc1ccc(C(=O)N2CCCC(Nc3ccc(C(C)C)cc3)C2)s1", "note": "(stereo unspecified)", "Potency": "inconclusive: 20 µM [activator, single point]"}
{"smiles": "N#Cc1nc(-c2ccccc2)oc1N1CCN(C(=O)c2ccco2)CC1", "activity, positive = growth rescue": "inactive: -3.99%"}
{"smiles": "C=CCc1cccc(/C=N/NC(=O)CCCNc2ccc(C)cc2)c1O", "Potency": "active: 14.1 µM"}
{"smiles": "O=C(OCCCOC(=O)c1ccccc1O)c1ccccc1O", "Potency": "inconclusive: 3.16 µM [activator, single point]"}
{"smiles": "CC(=O)NC(C)c1cc(Cl)c2cccnc2c1O", "note": "(stereo unspecified)", "Potency": "inconclusive: 3.55 µM [activator, single point]"}
{"smiles": "Cc1cccc2sc(NNC(=O)c3ccc(S(=O)(=O)N4CCCC(C)C4)cc3)nc12", "note": "(stereo unspecified)", "Potency": "active: 8.91 µM"}
{"smiles": "COc1cc(CCC(=O)Nc2ccc(Br)c(C(F)(F)F)c2)cc(OC)c1OC", "activity, positive = growth rescue": "inactive: -3.17%"}
{"smiles": "CC(=O)C(Sc1nn(C)c(=S)s1)C(=O)Nc1ccccc1", "note": "(stereo unspecified)", "Potency": "inconclusive: 20 µM [activator, single point]"}
{"smiles": "O=C(Cc1cccs1)N=Nc1c(O)[nH]c2ccc(Br)cc12", "activity, positive = growth rescue": "inactive: -0.678%"}
{"smiles": "O=C(NC1CCCCC1)Oc1cc2oc(=O)sc2cc1Cl", "activity, positive = growth rescue": "inactive: -21.7%"}
{"smiles": "Oc1ccc(/C=N/NC(=S)Nc2cccnc2)cc1", "activity, positive = growth rescue": "inactive: -1.39%"}
{"smiles": "CCC(=O)N1CCc2cc(Br)cc(S(=O)(=O)C3(C(=O)OC)CC3)c21", "Potency": "inconclusive: 3.55 µM [activator, single point]"}
{"smiles": "CCCS(=O)(=O)c1cnc(C2COc3ccccc3O2)nc1N", "note": "(stereo unspecified)", "activity, positive = growth rescue": "inactive: -3.05%"}
{"smiles": "COc1ncnc(OC)c1NC(=O)c1ccc(F)cc1", "activity, positive = growth rescue": "inactive: 2.28%"}
{"smiles": "Cc1cc(=S)nc(-c2ccccn2)[nH]1", "Potency": "inconclusive: 10 µM [activator, single point]"}
{"smiles": "CCN(C(=O)COC(=O)c1ccc2c(c1)OCO2)c1ccc(F)cc1", "activity, positive = growth rescue": "inactive: -1.64%"}
{"smiles": "COc1cccc(-c2nc(CS(=O)CC(=O)NC(C)CCc3ccccc3)c(C)o2)c1", "note": "(stereo unspecified)", "Potency": "inconclusive: 0.398 µM [activator, full curve]"}
{"smiles": "O=C(c1ccccc1Br)N1N=C(c2ccccc2)CC1c1ccccc1F", "note": "(stereo unspecified)", "activity, positive = growth rescue": "inactive: -6.4%"}
{"smiles": "O=C(CCC(=O)Nc1ccc(Br)cc1)N/N=C/c1ccc(F)cc1", "activity, positive = growth rescue": "inactive: 1.05%"}
{"smiles": "FC(F)(F)c1cnc(Sc2nnc(-c3cccs3)n2CC2CCCO2)c(Cl)c1", "note": "(stereo unspecified)", "Potency": "inconclusive: 0.355 µM [activator, full curve]"}
{"smiles": "CCN1CCN(CC(O)COc2ccc(C(C)=O)cc2)CC1", "note": "(stereo unspecified)", "Potency": "inconclusive: 4.47 µM [activator, partial curve]"}
{"smiles": "COc1ccc(C(=O)C2CCCN(Cc3cn[nH]c3-c3ccc(F)cc3)C2)cc1OC", "note": "(stereo unspecified)", "activity, positive = growth rescue": "inactive: -1.02%"}
{"smiles": "Cn1ncc2c(Nc3ccccc3Br)ncnc21", "Potency": "inconclusive: 3.98 µM [activator, single point]"}
{"smiles": "CCCCCCN1Cc2ccccc2C1", "activity, positive = growth rescue": "inactive: -0.557%"}
{"smiles": "Cc1ccsc1C(=O)N1CCCC(CO)(Cc2ccccc2F)C1", "note": "(stereo unspecified)", "Potency": "inconclusive: 0.501 µM [activator, full curve]"}
{"smiles": "Cc1ccnc(NC(=O)CCS(=O)(=O)c2ccccc2)c1", "Potency": "inconclusive: 0.398 µM [activator, partial curve, poor fit]"}
{"smiles": "CC(C(=O)Nc1cc([N+](=O)[O-])ccc1Cl)N1CCN(c2ccc(O)cc2)CC1", "note": "(stereo unspecified)", "Potency": "inconclusive: 8.91 µM [activator, partial curve]"}
{"smiles": "Brc1ccc(CSc2nccn2-c2ccccc2)cc1", "Potency": "inconclusive: 17.8 µM [activator, single point]"}
{"smiles": "COc1cc(C(C)=O)ccc1OCC(=O)N(CCC1=CCCCC1)c1c(N)n(Cc2ccccc2)c(=O)[nH]c1=O", "Potency": "inconclusive: 2.82 µM [activator, single point]"}
{"smiles": "Cc1ccc2[nH]c(=O)c(C3C(C#N)=C(N)Oc4c3ccc3cccnc43)cc2c1", "note": "(stereo unspecified)", "Potency": "active: 12.6 µM"}
{"smiles": "CN1CCC(N(C)CC(=O)Nc2ccccc2N2CCOCC2)CC1", "Potency": "inconclusive: 22.4 µM [activator, partial curve]"}
{"smiles": "O=C(CNS(=O)(=O)c1ccc(Br)cc1)N1CCN(Cc2ccccc2)CC1", "Potency": "inconclusive: 3.55 µM [activator, full curve]"}
{"smiles": "Cc1cc(=O)oc2c3c(cc(OCC(=O)NCc4ccco4)c12)OC(C)(C)CC3", "activity, positive = growth rescue": "inactive: -7.88%"}
{"smiles": "Cc1ccc(S(=O)(=O)N(C)C)cc1NC(=O)COC(=O)c1ccc2c(c1)OCO2", "Potency": "inconclusive: 20 µM [activator, partial curve]"}
{"smiles": "CC(=O)Nc1ccc(-c2csc(NC(=O)CCNC(=O)c3ccco3)n2)cc1", "activity, positive = growth rescue": "inactive: -7.01%"}
{"smiles": "O=C(N/N=C/c1c(O)n(Cc2ccccc2)c(=O)c2ccccc12)c1cccnc1", "Potency": "inconclusive: 1.58 µM [activator, partial curve, poor fit]"}
{"smiles": "CCOC(=O)c1c[nH]c2c(C)cc(C)cc2c1=O", "activity, positive = growth rescue": "inactive: 0.271%"}
{"smiles": "COC(=O)COc1nsnc1N1CCOCC1", "activity, positive = growth rescue": "inactive: -1.8%"}
{"smiles": "O=C(Nc1cccc(S(=O)(=O)N2CCCCC2)c1)C1CCCC1", "activity, positive = growth rescue": "inactive: 3.18%"}
{"smiles": "CC(Sc1nc(-c2ccccc2)cc(C(F)(F)F)n1)C(=O)N1CCOCC1", "note": "(stereo unspecified)", "Potency": "inconclusive: 1.58 µM [activator, partial curve]"}
{"smiles": "CN(C(=O)c1ccc2c(c1)C(=O)N(CCC1=CCCCC1)C2=O)C1CCCCC1", "activity, positive = growth rescue": "inactive: -6.58%"}
{"smiles": "OC(CN1CCCCC1)Cn1c(C(F)(F)F)nc2ccccc21", "note": "(stereo unspecified)", "Potency": "inconclusive: 20 µM [activator, single point]"}
{"smiles": "Cc1ccc2nc(NNC(=O)c3ccc4c(c3)OCCO4)sc2c1", "Potency": "inconclusive: 20 µM [activator, single point]"}
{"smiles": "COCC(=O)NC1CC2CCC(C1)N2C(=S)Nc1ccccc1C(=O)OC", "note": "(stereo unspecified)", "activity, positive = growth rescue": "inactive: -1.76%"}
{"smiles": "CCOc1ccc(N2C(=O)/C(=C/c3ccco3)N(C)C2=S)cc1", "activity, positive = growth rescue": "inactive: 3.08%"}
{"smiles": "C=CCn1cnc2c(nnn2-c2ccc(C)c(C)c2)c1=O", "activity, positive = growth rescue": "inactive: -2.16%"}
{"smiles": "COc1cc(/C=C(/C)[N+](=O)[O-])ccc1OCc1ccccc1Cl", "activity, positive = growth rescue": "inactive: -80.8%"}
{"smiles": "CCOc1ccccc1CNC(=O)CCNC(=O)Cn1ccc2ccccc2c1=O", "Potency": "inconclusive: 3.98 µM [activator, single point]"}
